Results: paper PMC4541365, “Alpha-ring Independent Assembly of the 20S Proteasome” (Scientific Reports, 2015)
No constants are given. Whether binding was seen depends on the method and setting. For some of these results: Binding seen in cells or lysates may run through a third protein. Some results given as binding are weak or reduced against the parent protein; the word gives no strength. Sequences can lack the tags named with a protein.

Legend:
[1] = molecular target: T1, M. maripaludis α-his subunit K59E (Methanococcus maripaludis S2) (UniProt Q6M0L9); assay: SEC; 780 μg ICAR-purified α-his alone on HiPrep Sephacryl S-300 HR, 25 mM Tris-HCl pH 7, 150 mM NaCl, 0.8 ml/min, 3 ml fractions; fractions on SDS-PAGE and native PAGE; both purified
T1 sequence: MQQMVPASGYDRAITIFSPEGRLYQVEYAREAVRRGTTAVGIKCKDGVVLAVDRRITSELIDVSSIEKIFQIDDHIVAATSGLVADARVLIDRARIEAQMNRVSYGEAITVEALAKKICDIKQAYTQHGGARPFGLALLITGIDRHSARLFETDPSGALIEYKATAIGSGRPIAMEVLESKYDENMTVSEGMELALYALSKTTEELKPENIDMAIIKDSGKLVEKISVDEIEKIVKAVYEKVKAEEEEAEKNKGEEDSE

[2] = molecular target: T1, M. maripaludis α-his subunit K59E (Methanococcus maripaludis S2); assay: native gel or EMSA; ICAR-purified α-his subunits alone (10 or 20 μg) on nondenaturing 4–15% or 5–10% gradient gels, 55 V, 4 °C; self-assembly into single and double α-rings; both purified
[3] = molecular target: T2, Methanococcus maripaludis S2 20S proteasome α subunit, C-terminally hexahistidine-tagged, wild type (Methanococcus maripaludis S2) (UniProt Q6M0L9); assay: native gel or EMSA; data not shown: putative half-proteasome band of the lysate mixing samples excised from the native gel and its proteins eluted
T2 sequence: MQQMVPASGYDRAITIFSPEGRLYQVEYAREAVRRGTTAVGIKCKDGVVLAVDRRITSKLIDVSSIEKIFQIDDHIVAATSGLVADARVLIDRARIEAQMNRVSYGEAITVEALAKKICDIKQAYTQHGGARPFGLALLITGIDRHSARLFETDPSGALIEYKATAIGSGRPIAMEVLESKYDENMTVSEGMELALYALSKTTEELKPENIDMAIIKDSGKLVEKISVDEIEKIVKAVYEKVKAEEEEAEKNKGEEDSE

[4] = molecular target: T1, M. maripaludis α-his subunit K59E (Methanococcus maripaludis S2); assay: pull-down; α-his coexpressed with untagged β subunits in E. coli; purified by ICAR through α-his; eluate on nondenaturing 5–10% gel, substrate overlay and SDS-PAGE
[5] = molecular target: T3, M. maripaludis α-his subunit R88D (Methanococcus maripaludis S2) (UniProt Q6M0L9); assay: as above
T3 sequence: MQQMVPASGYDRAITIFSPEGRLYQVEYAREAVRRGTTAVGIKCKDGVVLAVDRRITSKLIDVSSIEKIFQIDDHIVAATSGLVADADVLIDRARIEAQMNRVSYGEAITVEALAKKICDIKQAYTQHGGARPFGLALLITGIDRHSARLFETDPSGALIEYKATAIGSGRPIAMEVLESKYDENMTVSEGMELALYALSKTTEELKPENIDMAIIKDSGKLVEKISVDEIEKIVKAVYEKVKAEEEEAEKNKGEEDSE

[6] = molecular target: T2, Methanococcus maripaludis S2 20S proteasome α subunit, C-terminally hexahistidine-tagged, wild type (Methanococcus maripaludis S2); assay: as above
[7] = molecular target: Methanococcus maripaludis S2 20S proteasome β subunit, untagged, wild type (Methanococcus maripaludis S2) (UniProt Q6LZD4); assay: as above
[8] = molecular target: T1, M. maripaludis α-his subunit K59E (Methanococcus maripaludis S2); assay: SEC; lysates with α-his mixed with lysates with untagged full length β; purified by ICAR; purified proteins fractionated by size exclusion chromatography (Sephacryl S-300)
[9] = molecular target: T2, Methanococcus maripaludis S2 20S proteasome α subunit, C-terminally hexahistidine-tagged, wild type (Methanococcus maripaludis S2); assay: as above
[10] = molecular target: T1, M. maripaludis α-his subunit K59E (Methanococcus maripaludis S2); assay: pull-down; lysate mixing: total crude lysates of E. coli separately expressing α-his and untagged β mixed, 37 °C, 30 min; purified by ICAR through α-his; eluate on nondenaturing 5–10% gel, substrate overlay and SDS-PAGE
[11] = molecular target: T3, M. maripaludis α-his subunit R88D (Methanococcus maripaludis S2); assay: as above
[12] = molecular target: T2, Methanococcus maripaludis S2 20S proteasome α subunit, C-terminally hexahistidine-tagged, wild type (Methanococcus maripaludis S2); assay: as above
[13] = molecular target: Methanococcus maripaludis S2 20S proteasome β subunit, untagged, wild type (Methanococcus maripaludis S2) (UniProt Q6LZD4); assay: as above
[14] = molecular target: T1, M. maripaludis α-his subunit K59E (Methanococcus maripaludis S2); assay: pull-down; pool 1 (Sephacryl S-300 fractions 17–19, ringed species) of purified α-his, concentrated, mixed with equal volume of E. coli lysate with untagged wild-type β; repurified by ICAR; native PAGE and substrate overlay; only the target purified
[15] = molecular target: T3, M. maripaludis α-his subunit R88D (Methanococcus maripaludis S2); assay: as above
[16] = molecular target: T2, Methanococcus maripaludis S2 20S proteasome α subunit, C-terminally hexahistidine-tagged, wild type (Methanococcus maripaludis S2); assay: as above
[17] = molecular target: T1, M. maripaludis α-his subunit K59E (Methanococcus maripaludis S2); assay: pull-down; pool 2 (Sephacryl S-300 fractions 25–28, nonR species, mostly free α subunits) of purified α-his, concentrated, mixed with equal volume of E. coli lysate with untagged wild-type β; repurified by ICAR; native PAGE and substrate overlay; only the target purified
[18] = molecular target: T3, M. maripaludis α-his subunit R88D (Methanococcus maripaludis S2); assay: as above
[19] = molecular target: T2, Methanococcus maripaludis S2 20S proteasome α subunit, C-terminally hexahistidine-tagged, wild type (Methanococcus maripaludis S2); assay: as above
[20] = molecular target: M. maripaludis α-his subunit Q99C (Methanococcus maripaludis S2) (UniProt Q6M0L9); assay: native gel or EMSA; ICAR-purified α-his subunits alone (10 or 20 μg) on nondenaturing 4–15% or 5–10% gradient gels, 55 V, 4 °C; self-assembly into single and double α-rings; both purified
[21] = molecular target: M. maripaludis α-his subunit Q99C (Methanococcus maripaludis S2) (UniProt Q6M0L9); assay: cross-linking; engineered cysteine disulfide, no cross-linking or oxidizing agent added; DR band excised from the native gel, proteins eluted, 12% SDS-PAGE under non-reducing conditions, silver stain; DTT added back to some aliquots; both purified
[22] = molecular target: T2, Methanococcus maripaludis S2 20S proteasome α subunit, C-terminally hexahistidine-tagged, wild type (Methanococcus maripaludis S2); assay: native gel or EMSA; time course after mixing separately purified α-his and β-his subunits; nondenaturing gels; both purified
[23] = molecular target: T3, M. maripaludis α-his subunit R88D (Methanococcus maripaludis S2); assay: SEC; 780 μg ICAR-purified α-his alone on HiPrep Sephacryl S-300 HR, 25 mM Tris-HCl pH 7, 150 mM NaCl, 0.8 ml/min, 3 ml fractions; fractions on SDS-PAGE and native PAGE; both purified
[24] = molecular target: T3, M. maripaludis α-his subunit R88D (Methanococcus maripaludis S2); assay: native gel or EMSA; ICAR-purified α-his subunits alone (10 or 20 μg) on nondenaturing 4–15% or 5–10% gradient gels, 55 V, 4 °C; self-assembly into single and double α-rings; both purified

B1: M. maripaludis α-his subunit K59E (protein, UniProt Q6M0L9 1-259)
chain: MQQMVPASGYDRAITIFSPEGRLYQVEYAREAVRRGTTAVGIKCKDGVVLAVDRRITSELIDVSSIEKIFQIDDHIVAATSGLVADARVLIDRARIEAQMNRVSYGEAITVEALAKKICDIKQAYTQHGGARPFGLALLITGIDRHSARLFETDPSGALIEYKATAIGSGRPIAMEVLESKYDENMTVSEGMELALYALSKTTEELKPENIDMAIIKDSGKLVEKISVDEIEKIVKAVYEKVKAEEEEAEKNKGEEDSE
- binding [1]: binds weakly
- binding [2]: binds weakly

B2: Methanococcus maripaludis S2 20S proteasome β subunit, untagged, wild type (protein, UniProt Q6LZD4 15-219)
chain: TTTVGLLCNDGVVLATDKRATMGNLIADKEAKKLYKIDDYIAMTIAGSVGDAQSLIRLISAEAKIYKMRTGNNMTPLSCTTLISNVLHGNRHYPLLTQLILGGYDLINGAKLFSLDPVGGINEESSFTATGSGSPTAYGVLESEYKSDIAIEKGLLIAVKALSSAMQRDAYSGNGISLAHINKDGVKLYSDAEIEGFLKKINRKR
- binding [3]: binds
- binding [4]: binds
- binding [5]: binds
- binding [6]: binds
- binding [7]: binds
- binding [8]: binds
- binding [9]: binds
- binding [10]: binds
- binding [11]: binds
- binding [12]: binds
- binding [13]: binds
- binding [14]: binds weakly
- binding [15]: binds weakly
- binding [16]: binds
- binding [17]: binds
- binding [18]: binds
- binding [19]: binds

B3: M. maripaludis β subunit lacking the propeptide (Δpro), untagged (protein, UniProt Q6LZD4 15-219)
chain: TTTVGLLCNDGVVLATDKRATMGNLIADKEAKKLYKIDDYIAMTIAGSVGDAQSLIRLISAEAKIYKMRTGNNMTPLSCTTLISNVLHGNRHYPLLTQLILGGYDLINGAKLFSLDPVGGINEESSFTATGSGSPTAYGVLESEYKSDIAIEKGLLIAVKALSSAMQRDAYSGNGISLAHINKDGVKLYSDAEIEGFLKKINRKR
- binding [4]: binds
- binding [5]: binds
- binding [10]: binds
- binding [11]: binds

B4: M. maripaludis α-his subunit Q99C (protein, UniProt Q6M0L9 1-259)
chain: MQQMVPASGYDRAITIFSPEGRLYQVEYAREAVRRGTTAVGIKCKDGVVLAVDRRITSKLIDVSSIEKIFQIDDHIVAATSGLVADARVLIDRARIEACMNRVSYGEAITVEALAKKICDIKQAYTQHGGARPFGLALLITGIDRHSARLFETDPSGALIEYKATAIGSGRPIAMEVLESKYDENMTVSEGMELALYALSKTTEELKPENIDMAIIKDSGKLVEKISVDEIEKIVKAVYEKVKAEEEEAEKNKGEEDSE
- binding [20]: binds
- binding [21]: binds

B5: M. maripaludis β subunit, hexahistidine-tagged (protein, UniProt Q6LZD4 15-219)
chain: TTTVGLLCNDGVVLATDKRATMGNLIADKEAKKLYKIDDYIAMTIAGSVGDAQSLIRLISAEAKIYKMRTGNNMTPLSCTTLISNVLHGNRHYPLLTQLILGGYDLINGAKLFSLDPVGGINEESSFTATGSGSPTAYGVLESEYKSDIAIEKGLLIAVKALSSAMQRDAYSGNGISLAHINKDGVKLYSDAEIEGFLKKINRKR
- binding [22]: binds

B6: M. maripaludis α-his subunit R88D (protein, UniProt Q6M0L9 1-259)
chain: MQQMVPASGYDRAITIFSPEGRLYQVEYAREAVRRGTTAVGIKCKDGVVLAVDRRITSKLIDVSSIEKIFQIDDHIVAATSGLVADADVLIDRARIEAQMNRVSYGEAITVEALAKKICDIKQAYTQHGGARPFGLALLITGIDRHSARLFETDPSGALIEYKATAIGSGRPIAMEVLESKYDENMTVSEGMELALYALSKTTEELKPENIDMAIIKDSGKLVEKISVDEIEKIVKAVYEKVKAEEEEAEKNKGEEDSE
- binding [23]: no binding
- binding [24]: no binding
